Measurements reported in paper PMC9932171.
These are yes or no findings as the source states them, for the method shown. In cells and extracts the contact can be indirect. Some results given as binding are weak or reduced against the parent protein; the word gives no strength.

Amino acid sequences for entries named in this document (tags omitted). Residues count along the entry.
UniProt Q9Y6N7, residues 26-1651: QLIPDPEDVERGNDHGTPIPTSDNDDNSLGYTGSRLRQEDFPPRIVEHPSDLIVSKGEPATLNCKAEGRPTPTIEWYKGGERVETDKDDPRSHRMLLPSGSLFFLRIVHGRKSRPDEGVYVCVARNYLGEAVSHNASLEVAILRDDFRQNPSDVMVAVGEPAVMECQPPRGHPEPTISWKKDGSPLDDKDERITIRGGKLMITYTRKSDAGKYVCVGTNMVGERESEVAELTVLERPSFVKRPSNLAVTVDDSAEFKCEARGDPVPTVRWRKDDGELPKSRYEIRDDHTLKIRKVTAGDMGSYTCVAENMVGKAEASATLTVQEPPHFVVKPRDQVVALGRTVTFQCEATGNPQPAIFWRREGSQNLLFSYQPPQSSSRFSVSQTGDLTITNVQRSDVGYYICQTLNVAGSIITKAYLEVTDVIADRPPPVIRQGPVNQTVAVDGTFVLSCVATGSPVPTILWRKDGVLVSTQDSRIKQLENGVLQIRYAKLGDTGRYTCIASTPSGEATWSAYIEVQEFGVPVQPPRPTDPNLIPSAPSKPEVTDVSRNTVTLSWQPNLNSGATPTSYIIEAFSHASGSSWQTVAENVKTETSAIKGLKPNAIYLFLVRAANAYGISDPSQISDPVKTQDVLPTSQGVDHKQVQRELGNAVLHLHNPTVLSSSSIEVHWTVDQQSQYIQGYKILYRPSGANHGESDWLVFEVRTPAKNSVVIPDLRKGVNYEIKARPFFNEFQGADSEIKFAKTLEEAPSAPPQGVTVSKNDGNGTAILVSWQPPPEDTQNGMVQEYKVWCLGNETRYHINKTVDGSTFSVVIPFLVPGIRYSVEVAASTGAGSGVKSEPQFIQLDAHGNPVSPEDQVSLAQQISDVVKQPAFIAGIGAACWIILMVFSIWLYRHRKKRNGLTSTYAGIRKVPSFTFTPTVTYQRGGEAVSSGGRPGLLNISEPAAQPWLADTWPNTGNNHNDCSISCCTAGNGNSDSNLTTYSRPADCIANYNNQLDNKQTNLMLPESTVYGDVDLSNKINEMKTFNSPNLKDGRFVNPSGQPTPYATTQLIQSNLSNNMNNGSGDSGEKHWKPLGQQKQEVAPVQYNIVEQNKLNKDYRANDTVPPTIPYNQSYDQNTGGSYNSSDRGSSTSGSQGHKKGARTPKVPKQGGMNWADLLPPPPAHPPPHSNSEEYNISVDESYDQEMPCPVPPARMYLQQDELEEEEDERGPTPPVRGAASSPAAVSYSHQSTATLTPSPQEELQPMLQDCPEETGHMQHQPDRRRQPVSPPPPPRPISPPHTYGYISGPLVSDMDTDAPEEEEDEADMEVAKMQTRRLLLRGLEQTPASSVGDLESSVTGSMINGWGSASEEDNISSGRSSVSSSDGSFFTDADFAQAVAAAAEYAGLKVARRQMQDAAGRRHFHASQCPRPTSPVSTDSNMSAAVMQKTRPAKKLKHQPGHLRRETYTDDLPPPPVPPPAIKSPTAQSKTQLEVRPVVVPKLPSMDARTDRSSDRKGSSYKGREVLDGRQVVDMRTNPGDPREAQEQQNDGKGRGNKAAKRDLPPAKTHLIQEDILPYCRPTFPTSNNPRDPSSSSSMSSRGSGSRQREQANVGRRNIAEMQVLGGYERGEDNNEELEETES
UniProt Q16539: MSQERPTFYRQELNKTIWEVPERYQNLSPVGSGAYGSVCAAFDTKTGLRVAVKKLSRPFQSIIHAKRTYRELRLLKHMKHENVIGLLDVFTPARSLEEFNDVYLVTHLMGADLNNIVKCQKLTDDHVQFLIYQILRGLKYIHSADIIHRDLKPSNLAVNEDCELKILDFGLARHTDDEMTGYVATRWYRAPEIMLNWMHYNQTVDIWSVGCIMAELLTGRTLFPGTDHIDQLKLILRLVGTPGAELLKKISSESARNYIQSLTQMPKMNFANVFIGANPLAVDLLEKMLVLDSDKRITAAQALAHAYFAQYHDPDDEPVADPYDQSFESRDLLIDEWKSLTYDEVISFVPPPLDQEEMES

Tests used:
[1] = biological target: ROBO1-FL (full-length ROBO1 expressed in SW-1990 cells) (UniProt Q9Y6N7); assay: co-IP; lysate of SW-1990 cells induced with 30 nM rSLIT2; anti-ROBO1 antibody on protein G Dynabeads; immunoblot
[2] = biological target: roundabout guidance receptor 1 (ROBO1), endogenous in PANC-1 cells (human (endogenous in PANC-1)) (UniProt Q9Y6N7); assay: co-IP; endogenous proteins in PANC-1 lysate; anti-ROBO1, anti-p38α MAPK or anti-MEK3/6 antibodies on protein G Dynabeads; lysate mixed with beads at room temperature for 30-60 min; immunoblot

binding [1] | binding [2] | Molecule
binds | binds | p38α MAPK (from UniProt Q16539 1-360) (enzyme)
 | binds | MEK6 (enzyme, UniProt P52564-1 1-334) MSQSKGKKRNPGLKIPKEAFEQPQTSSTPPRDLDSKACISIGNQNFEVKADDLEPIMELGRGAYGVVEKMRHVPSGQIMAVKRIRATVNSQEQKRLLMDLDISMRTVDCPFTVTFYGALFREGDVWICMELMDTSLDKFYKQVIDKGQTIPEDILGKIAVSIVKALEHLHSKLSVIHRDVKPSNVLINALGQVKMCDFGISGYLVDSVAKTIDAGCKPYMAPERINPELNQKGYSVKSDIWSLGITMIELAILRFPYDSWGTPFQQLKQVVEEPSPQLPADKFSAEFVDFTSQCLKKNSKERPTYPELMQHPFFTLHESKGTDVASFVKLILGD
 | binds | MEK3 (enzyme, UniProt P46734-2 1-318) MSKPPAPNPTPPRNLDSRTFITIGDRNFEVEADDLVTISELGRGAYGVVEKVRHAQSGTIMAVKRIRATVNSQEQKRLLMDLDINMRTVDCFYTVTFYGALFREGDVWICMELMDTSLDKFYRKVLDKNMTIPEDILGEIAVSIVRALEHLHSKLSVIHRDVKPSNVLINKEGHVKMCDFGISGYLVDSVAKTMDAGCKPYMAPERINPELNQKGYNVKSDVWSLGITMIEMAILRFPYESWGTPFQQLKQVVEEPSPQLPADRFSPEFVDFTAQCLRKNPAERMSYLELMEHPFFTLHKTKKTDIAAFVKEILGEDS
